{"source": "PubChem BioAssay AID602196, INSERM, 2012", "purpose": "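Knock-downs that protect lung cancer cells from cisplatin or sensitise them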", "cell system": "human A549 lung cancer cells", "reagents": "siRNA pair against human genes", "duration": "48 h transfection before cisplatin; time from cisplatin to read-out not stated", "conditions": "cisplatin at a dose killing half of control-siRNA cells; exact dose and duration not given", "measurement": "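Cisplatin cell death as a shift from the 50% death seen with control siRNA; siRNAs toxic or growth-blocking alone scored 0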", "direction": "two-siRNA summed score (-2 to +2): higher = both siRNAs protect from cisplatin killing; -2 means both sensitise; mean protection from cisplatin (shift in death): higher = protection from cisplatin killing", "hit rule": "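Each siRNA scores 0 if harmful alone by LDH or WST-1, otherwise +1 if it reduces and -1 if it increases cisplatin killing; a gene is active when both siRNAs agree (sum +2 or -2)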", "calls": "active = both siRNAs shift cisplatin killing the same way; inactive = no consistent shift, or siRNA harmful alone", "note": "Shown is a random part of about 23,000 reagents. Of all reagents, 455 (2%) were called active. 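Active includes both protection and sensitisation; some change values fall well beyond the stated -50 to +50 range.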 Entries without a mark were called inactive. The numbers tell different reagents against one gene apart. Not all columns of the deposit are shown. Not stated in the record: the amount of reagent."}
{"gene symbol": "TCF3 (GeneID 6929)", "reagent no.": 1, "two-siRNA summed score (-2 to +2)": 0, "mean protection from cisplatin (shift in death) (%)": 0.6}
{"gene symbol": "LOC440739", "reagent no.": 1, "two-siRNA summed score (-2 to +2)": 0, "mean protection from cisplatin (shift in death) (%)": 8.2}
{"gene symbol": "CHST9 (GeneID 83539)", "reagent no.": 1, "two-siRNA summed score (-2 to +2)": 1, "mean protection from cisplatin (shift in death) (%)": 7.8}
{"gene symbol": "PIK3R6 (GeneID 146850)", "reagent no.": 1, "two-siRNA summed score (-2 to +2)": 0, "mean protection from cisplatin (shift in death) (%)": -3.1}
{"gene symbol": "SUSD4 (GeneID 55061)", "reagent no.": 1, "two-siRNA summed score (-2 to +2)": 0, "mean protection from cisplatin (shift in death) (%)": 1.6}
{"gene symbol": "LOC440620", "reagent no.": 1, "two-siRNA summed score (-2 to +2)": 1, "mean protection from cisplatin (shift in death) (%)": 11.5}
{"gene symbol": "LILRB1 (GeneID 10859)", "reagent no.": 1, "two-siRNA summed score (-2 to +2)": 1, "mean protection from cisplatin (shift in death) (%)": 21.1}
{"gene symbol": "LOC440116", "reagent no.": 1, "two-siRNA summed score (-2 to +2)": 1, "mean protection from cisplatin (shift in death) (%)": 21.3}
{"gene symbol": "TNP1 (GeneID 7141)", "reagent no.": 1, "two-siRNA summed score (-2 to +2)": 1, "mean protection from cisplatin (shift in death) (%)": 2.8}
{"gene symbol": "LYZ (GeneID 4069)", "reagent no.": 1, "two-siRNA summed score (-2 to +2)": 0, "mean protection from cisplatin (shift in death) (%)": 1.7}
{"gene symbol": "LINC01002 (GeneID 399844)", "reagent no.": 1, "two-siRNA summed score (-2 to +2)": 0, "mean protection from cisplatin (shift in death) (%)": 6}
{"gene symbol": "ZNF324B (GeneID 388569)", "reagent no.": 1, "two-siRNA summed score (-2 to +2)": 0, "mean protection from cisplatin (shift in death) (%)": 1.5}
{"gene symbol": "NPFF (GeneID 8620)", "reagent no.": 1, "two-siRNA summed score (-2 to +2)": 0, "mean protection from cisplatin (shift in death) (%)": -2.8}
{"gene symbol": "SFMBT2 (GeneID 57713)", "reagent no.": 1, "two-siRNA summed score (-2 to +2)": 1, "mean protection from cisplatin (shift in death) (%)": 15.1}
{"gene symbol": "INF2 (GeneID 64423)", "reagent no.": 1, "two-siRNA summed score (-2 to +2)": 0, "mean protection from cisplatin (shift in death) (%)": -1.5}
{"gene symbol": "INF2 (GeneID 64423)", "reagent no.": 2, "two-siRNA summed score (-2 to +2)": 0, "mean protection from cisplatin (shift in death) (%)": -0.2}
{"gene symbol": "LOC140103", "reagent no.": 1, "two-siRNA summed score (-2 to +2)": 1, "mean protection from cisplatin (shift in death) (%)": 11.7}
{"gene symbol": "MIR570HG (GeneID 440993)", "reagent no.": 1, "two-siRNA summed score (-2 to +2)": 1, "mean protection from cisplatin (shift in death) (%)": 14.7}
{"gene symbol": "SRY (GeneID 6736)", "reagent no.": 1, "two-siRNA summed score (-2 to +2)": 1, "mean protection from cisplatin (shift in death) (%)": 12.4}
{"gene symbol": "LSM12 (GeneID 124801)", "reagent no.": 1, "two-siRNA summed score (-2 to +2)": -1, "mean protection from cisplatin (shift in death) (%)": 4.8}
{"gene symbol": "ADAM20 (GeneID 8748)", "reagent no.": 1, "two-siRNA summed score (-2 to +2)": 0, "mean protection from cisplatin (shift in death) (%)": -4.8}
{"gene symbol": "DRC10 (GeneID 115811)", "reagent no.": 1, "two-siRNA summed score (-2 to +2)": 0, "mean protection from cisplatin (shift in death) (%)": 6.3}
{"gene symbol": "LOC441755", "reagent no.": 1, "two-siRNA summed score (-2 to +2)": 0, "mean protection from cisplatin (shift in death) (%)": 6.8}
{"gene symbol": "LOC390338", "reagent no.": 1, "two-siRNA summed score (-2 to +2)": 0, "mean protection from cisplatin (shift in death) (%)": 10.6}
{"gene symbol": "LTA (GeneID 4049)", "reagent no.": 1, "two-siRNA summed score (-2 to +2)": -1, "mean protection from cisplatin (shift in death) (%)": -23.2}
{"gene symbol": "CFAP58 (GeneID 159686)", "reagent no.": 1, "two-siRNA summed score (-2 to +2)": -1, "mean protection from cisplatin (shift in death) (%)": -10.1}
{"gene symbol": "HDHD3 (GeneID 81932)", "reagent no.": 1, "two-siRNA summed score (-2 to +2)": 0, "mean protection from cisplatin (shift in death) (%)": 15.5}
{"gene symbol": "FERRY3 (GeneID 57102)", "reagent no.": 1, "two-siRNA summed score (-2 to +2)": 0, "mean protection from cisplatin (shift in death) (%)": 11}
{"gene symbol": "ZNF346 (GeneID 23567)", "reagent no.": 1, "two-siRNA summed score (-2 to +2)": 0, "mean protection from cisplatin (shift in death) (%)": 8.1}
{"gene symbol": "POLR2D (GeneID 5433)", "reagent no.": 1, "two-siRNA summed score (-2 to +2)": -1, "mean protection from cisplatin (shift in death) (%)": -10.1}
{"gene symbol": "ZMYM4 (GeneID 9202)", "reagent no.": 1, "two-siRNA summed score (-2 to +2)": -1, "mean protection from cisplatin (shift in death) (%)": -14.4}

In a second layout: 5 of the entries above.
{"gene symbol":"CFAP58 (GeneID 159686)","reagent no.":1,"two-siRNA summed score (-2 to +2)":-1,"mean protection from cisplatin (shift in death) (%)":-10.1}
{"gene symbol":"HDHD3 (GeneID 81932)","reagent no.":1,"two-siRNA summed score (-2 to +2)":0,"mean protection from cisplatin (shift in death) (%)":15.5}
{"gene symbol":"FERRY3 (GeneID 57102)","reagent no.":1,"two-siRNA summed score (-2 to +2)":0,"mean protection from cisplatin (shift in death) (%)":11}
{"gene symbol":"ZNF346 (GeneID 23567)","reagent no.":1,"two-siRNA summed score (-2 to +2)":0,"mean protection from cisplatin (shift in death) (%)":8.1}
{"gene symbol":"POLR2D (GeneID 5433)","reagent no.":1,"two-siRNA summed score (-2 to +2)":-1,"mean protection from cisplatin (shift in death) (%)":-10.1}
